Experimental data as given in the supplement of paper PMC11732987, “Enantioselective OTUD7B fragment discovery through chemoproteomics screening and high-throughput optimisation” (Communications Chemistry, 2025).
Some of the results follow. The data scatter; read single values as rough.

Target: T1, AMPD2 C310 (UniProt Q01433)
T1 sequence (whole entry): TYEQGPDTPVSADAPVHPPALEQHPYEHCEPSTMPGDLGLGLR
Experiment: log2 mean competition ratio of IA-DTB cysteine labelling (DMSO/compound) (log2 ratio); higher = stronger cysteine engagement by compound
Details: treatment time: 4 h, cell line lysate: HEK293T
Experimental: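 IA-DTB competitive cysteine chemoproteomics in HEK293T RIPA lysate. Lysates were treated with compound 29 or 30 at 50 or 200 µM for 4 h, then IA-DTB (500 µM, 1 h), trypsin-digested, NeutrAvidin-enriched and analysed by diaPASEF. Competition ratio = intensity DMSO / intensity compound (n=4 treated, n=64 DMSO); binding: mean log2 CR ≥ 1 and p ≤ 0.05 plus QC filters. Target is the cysteine site.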

| Compound | log2 mean competition ratio (50 µM) | log2 mean competition ratio (200 µM) |
| --- | --- | --- |
| O=C(CCl)N[C@H]1CCCc2ccccc21 | 0.679 | -0.514 |
| O=C(CCl)N[C@@H]1CCCc2ccccc21 | 0.0133 | 0.117 |
